Measured values published in patent US20170292963A1.
Results are given in words; binding and its absence hold for the method and conditions named. In cells and extracts the contact can be indirect. Some results given as binding are weak or reduced against the parent protein; the word gives no strength.

Target: T1, Mouse NPTX1 (Neuronal Pentraxin 1), native protein in mouse brain lysate or neurons (mouse) (UniProt Q62443)
T1 sequence: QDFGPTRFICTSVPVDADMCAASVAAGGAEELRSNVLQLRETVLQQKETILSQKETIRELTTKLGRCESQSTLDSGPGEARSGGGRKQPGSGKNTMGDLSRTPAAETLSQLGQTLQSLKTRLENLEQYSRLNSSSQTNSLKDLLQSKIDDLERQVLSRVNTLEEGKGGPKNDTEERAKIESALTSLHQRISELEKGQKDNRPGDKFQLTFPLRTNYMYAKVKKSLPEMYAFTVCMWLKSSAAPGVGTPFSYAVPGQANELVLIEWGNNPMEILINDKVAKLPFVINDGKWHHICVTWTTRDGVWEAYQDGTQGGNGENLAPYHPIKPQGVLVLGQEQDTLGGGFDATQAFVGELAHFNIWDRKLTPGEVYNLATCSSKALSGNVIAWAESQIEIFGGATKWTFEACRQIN
Assay: co-immunoprecipitation from mouse brain lysate, Western blot

B1: Mouse NPTX2 (Neuronal Pentraxin 2), native protein in mouse brain lysate (protein)
chain: AGRAQDSPIPGSRFVCTALPPEAARAGCPLPAMPMQGGALSPEEELRAAVLQLRETVVQQKETLGAQREAIRELTGKLARCEGLAGGKARGTGKDTMGDLPRDPGHVVEQLSRSLQTLKDRLESLELQLRTNVSNAGLPSDFREVLQRRLGELERQLLRKVAELEDEKSLLHNETSAHRQKTESTLNALLQRVTELERGNSAFKSPDAFKVSLPLRTNYLYGKIKKTLPELYAFTICLWLRSSASPGIGTPFSYAVPGQANEIVLIEWGNNPIELLINDKVAQLPLFVSDGKWHHICITWTTRDGMWEAFQDGEKLGTGENLAPWHPIKPGGVLILGQEQDTVGGRFDATQAFVGELSQFNIWDRVLRAQEIINIANCSTNMPGNIIPWVDNNVDVFGGASKWPVETCEERLLDL
binding: binds
